Data published in PubChem BioAssay AID1347076 (National Center for Advancing Translational Sciences (NCATS), 2019).
Hit rate of the full screen: of about 400,000 compounds, about 13,000 (3.2%) were called active. The inconclusive results got no clear call from the source; some entries with a clear call stand among them for comparison. Calls follow the shape of the dose curve; as a rule, active = well fitted cell-killing curve with a large enough effect; inconclusive = small, poorly fitted or top-dose-only effect, or effect the other way; inactive = flat fitted curve, though single readings scatter. Potencies beside an inconclusive call are fits to weak or partial responses and may not hold up.

Assay: qHTS assay for MDR1-selective chemotherapeutics: Primary screen using the drug-selected MDR subline cells KB-V1; also: nearly all actives have a fitted effect of over 60% in size
Details: KB-V1 MDR cells viability, CellTiter-Glo, 72 h; series mostly up to 46.1 µM
How it was run: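 Compound-treated KB-V1 multidrug-resistant cells, 72 h, 37 degrees C; viability by CellTiter-Glo. Fitted qHTS curves give the values.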
Potency is read from the fitted curve at half-maximal effect.

| Compound | Potency |
| --- | --- |
| Cc1cccc(C)c1OCCOC(=O)c1cccc(S(=O)(=O)N2CCOCC2)c1 | inconclusive: 29.1 µM [cytotoxic, single point] |
| O=C1c2ccccc2[C@@H]2Cc3csc[n+]3[C@H]12 | inconclusive: 8.2 µM [rising, partial curve] |
| N#Cc1c[nH]n2c(NC3CCCC3)c(-c3cccc(Cl)c3)nc12 | inconclusive: 11.6 µM [rising, partial curve] |
| Cc1ccc2c(Cl)cc(Cl)c(OCC(=O)NCCc3ccccn3)c2n1 | inconclusive: 29.1 µM [cytotoxic, single point] |
| CN(Cc1cccs1)C(=O)CN1CCN(S(=O)(=O)c2ccc3c(c2)OCCCO3)CC1 | inconclusive: 29.1 µM [cytotoxic, single point] |
| O=C(O)c1cccc(S(=O)(=O)N2CCc3ccccc3C2)c1 | inconclusive: 23.1 µM [rising, single point] |
| COc1ccc(OC)c(N(CC(=O)Nc2ccccc2)S(=O)(=O)c2ccccc2)c1 | inconclusive: 2.06 µM [cytotoxic, full curve, poor fit] |
| CCN(CC)C(=O)CSc1nc(COc2ccccc2)nc2ccccc12 | inactive |
| Cc1ccc(S(=O)(=O)N2CCN(c3ccc(C(F)(F)F)cc3[N+](=O)[O-])CC2)cc1 | inconclusive: 29.1 µM [cytotoxic, single point] |
| COC(=O)C1(C(=O)OC)C[C@H](/C=C/c2ccccc2)N(Cc2ccccc2OC)[C@@H]1c1ccccc1 | inconclusive: 18.4 µM [cytotoxic, partial curve, poor fit] |
| COC(=O)c1c(CCl)noc1C(=O)NC(C)C | inconclusive: 23.1 µM [cytotoxic, single point] |
| COC(=O)c1ccc2nc(-c3ccccc3)c(Cc3ccccc3OC)n2c1 | inconclusive: 29.1 µM [cytotoxic, single point] |
| CN(C)c1ccc(CC2C(=O)Nc3ccccc32)cc1 (centres undefined) | inactive |
| Cc1nc2c(nnn2Cc2ccccc2)c(=O)n1-c1ccccc1 | inconclusive: 20.6 µM [cytotoxic, partial curve, poor fit] |
| O=S(=O)(NCCCCNS(=O)(=O)c1cccc2cccnc12)c1cccc2cccnc12 | inactive |
| CCCCCCCCN1C(=O)[C@H](CC(=O)NCc2ccc(C)o2)C[C@@]2(C(=O)OCC)CCC=C12 | inconclusive: 10.3 µM [cytotoxic, partial curve, poor fit] |
| O=C1CCc2cc(S(=O)(=O)NCCc3ccc(Cl)cc3)cc3c2N1CC3 | inconclusive: 20.6 µM [cytotoxic, single point] |
| C[C@@H]1Cn2cnc(C(=O)NCc3ccc(CNC(=O)OC(C)(C)C)cc3)c2C(=O)N1 | inactive |
| CCOC(=O)c1c(NC(=O)CN(CC)CC)sc2c1CCN(C(=O)OCC)C2 | inconclusive: 29.1 µM [cytotoxic, single point] |
| O=S(=O)(c1cc(F)ccc1F)N1CCN(c2ncnc3ccccc23)CC1 | active: 9.2 µM |
| CCn1c(=O)c(CCC(=O)NCC2CCCO2)c(C)c2c(C)nn(-c3ccc(C)cc3)c21 (centres undefined) | inactive |
| COc1ccc(C2=NN(C(=O)c3cccs3)C(c3ccc(OC)cc3)C2)cc1 (centres undefined) | inconclusive: 5.8 µM [cytotoxic, full curve, poor fit] |
| CSc1cccc(NC(=O)N2CCN(c3cc(-c4noc(C)n4)ccc3C)CC2)c1 | inconclusive: 14.6 µM [cytotoxic, single point] |

Gathered by group: the entries above containing nitrogen in an aromatic ring (twelve)

| Compound | Potency |
| --- | --- |
| O=C1c2ccccc2[C@@H]2Cc3csc[n+]3[C@H]12 | inconclusive: 8.2 µM [rising, partial curve] |
| N#Cc1c[nH]n2c(NC3CCCC3)c(-c3cccc(Cl)c3)nc12 | inconclusive: 11.6 µM [rising, partial curve] |
| Cc1ccc2c(Cl)cc(Cl)c(OCC(=O)NCCc3ccccn3)c2n1 | inconclusive: 29.1 µM [cytotoxic, single point] |
| CCN(CC)C(=O)CSc1nc(COc2ccccc2)nc2ccccc12 | inactive |
| COC(=O)c1c(CCl)noc1C(=O)NC(C)C | inconclusive: 23.1 µM [cytotoxic, single point] |
| COC(=O)c1ccc2nc(-c3ccccc3)c(Cc3ccccc3OC)n2c1 | inconclusive: 29.1 µM [cytotoxic, single point] |
| Cc1nc2c(nnn2Cc2ccccc2)c(=O)n1-c1ccccc1 | inconclusive: 20.6 µM [cytotoxic, partial curve, poor fit] |
| O=S(=O)(NCCCCNS(=O)(=O)c1cccc2cccnc12)c1cccc2cccnc12 | inactive |
| C[C@@H]1Cn2cnc(C(=O)NCc3ccc(CNC(=O)OC(C)(C)C)cc3)c2C(=O)N1 | inactive |
| O=S(=O)(c1cc(F)ccc1F)N1CCN(c2ncnc3ccccc23)CC1 | active: 9.2 µM |
| CCn1c(=O)c(CCC(=O)NCC2CCCO2)c(C)c2c(C)nn(-c3ccc(C)cc3)c21 (centres undefined) | inactive |
| CSc1cccc(NC(=O)N2CCN(c3cc(-c4noc(C)n4)ccc3C)CC2)c1 | inconclusive: 14.6 µM [cytotoxic, single point] |

Remaining list, next part.

| Compound | Potency |
| --- | --- |
| COc1cc(-c2cnc3c(NC(C)=O)cc(-c4ccccc4CN(C)C)cn23)cc(OC)c1OC | inactive |
| CCOC(=O)c1ccc(NC(=S)N(CCCN2CCN(CC)CC2)Cc2ccco2)cc1 | inconclusive: 10.3 µM [cytotoxic, partial curve, poor fit] |
| COc1ccc(CCC(=O)NNC(=O)c2cc(Cl)ccc2OC)cc1OC | inconclusive: 13 µM [cytotoxic, partial curve] |
| C[n+]1c(/C=C/c2ccc(O)cc2)ccc2ccccc21 | inconclusive: 1.64 µM [rising, full curve] |
| O=[N+]([O-])c1cc(C(F)(F)F)ccc1NCCNC(=S)Nc1ccc(Cl)cc1 | inconclusive: 18.4 µM [cytotoxic, single point] |
| CCOC(=O)c1ccc(NC(=O)Nc2nncs2)cc1 | active: 0.326 µM |
| Cn1c(-c2sc3cc(C(F)(F)F)cnc3c2-c2ccccc2)n[nH]c1=S | inconclusive: 20.6 µM [cytotoxic, partial curve, poor fit] |
| COc1cccc(C(=O)NCCS(=O)(=O)N2CCCCC2)c1 | inactive |
| CCN1CCN(c2ncnc3c2cnn3-c2ccc(C)cc2)CC1 | inactive |
| CC1COC(C)(CC(=O)NN2C(=O)c3ccccc3C2=O)O1 (centres undefined) | inconclusive: 29.1 µM [rising, partial curve, poor fit] |
| CCN(CC)S(=O)(=O)c1ccc(OC)c(NC(=O)COc2ccc3c(C)cc(=O)oc3c2)c1 | inactive |
| COc1cc(C2CC(=O)N(c3ccccc3)C3=C2C(=O)OC3)cc(OC)c1OC (centres undefined) | inactive |
| O=C(Cn1ncc(N2CCCC2)c(Cl)c1=O)c1ccc(Cl)cc1 | inconclusive: 16.4 µM [cytotoxic, single point] |
| CCCOc1ccc(Cl)cc1Nc1nc(NCCO)nc(N2CCCC2)n1 | inconclusive: 23.1 µM [cytotoxic, single point] |
| CCC(C)Nc1nc(-c2ccccn2)nc2ccccc12 (centres undefined) | inconclusive: 1.64 µM [cytotoxic, partial curve, poor fit] |
| Cc1ccc(S(=O)(=O)NN2C(=O)c3ccccc3NC2c2ccccn2)cc1 (centres undefined) | inactive |
| CCOC(=O)c1c(C)[nH]c(C)c1S(=O)(=O)N1CCCC(C(=O)Nc2ccc(F)cc2F)C1 (centres undefined) | inactive |
| O=C(COc1ccccc1C(=O)Nc1ccccc1)Nc1ccccc1F | inactive |
| Clc1ccc2nc(SCc3nnc(-c4ccccc4)o3)[nH]c2c1 | active: 16.4 µM |
| CCOC(=O)[C@]12CCCC=C1N(Cc1ccco1)C(=O)[C@H](CC(=O)NCC13CC4CC(CC(C4)C1)C3)C2 | inconclusive: 14.6 µM [cytotoxic, partial curve] |
| CC(=O)c1cc2c(cc1NC(=O)CSc1nc3ccc(C)cc3[nH]1)OCO2 | inconclusive: 3.26 µM [cytotoxic, partial curve, poor fit] |
| COC(=O)C1=C(C)N(Cc2ccco2)C(=O)/C1=C\c1ccc([N+](=O)[O-])cc1 | inconclusive: 32.6 µM [cytotoxic, single point] |
| COc1ccc(NC(=O)C2(C)Cc3c(-c4ccc5c(c4)OCO5)ccnc3O2)cc1 (centres undefined) | inconclusive: 16.4 µM [cytotoxic, partial curve] |

| Compound | Potency |
| --- | --- |
| CCN(C(=O)CCN1C(=O)/C(=C/c2ccccc2)SC1=S)C1CCS(=O)(=O)C1 (centres undefined) | inactive |
| CNC(=O)CSc1nc2[nH]ncc2c(=O)[nH]1 | inconclusive: 18.4 µM [cytotoxic, single point] |
| O=C(NCc1ccccn1)c1cc(-c2ccc(Cl)cc2)nc2ccccc12 | active: 11.6 µM |
| CCCCC(=O)N(C)c1c(C)nc2ccc(C(=O)N3CCN(C(=O)c4ccco4)CC3)cn12 | inactive |
| CCCCc1nnc(NC(=O)C(=O)OCC)s1 | inconclusive: 16.4 µM [rising, single point] |
| O=C(C1CCC(Cn2c(=O)c3sccc3n(Cc3cccc(F)c3)c2=O)CC1)N1CCCCC1 (centres undefined) | inconclusive: 32.6 µM [cytotoxic, single point] |
| CCc1nnc(NC(=O)C2CCN(C(=O)c3ccco3)CC2)s1 | inactive |
| O=C(NN=Cc1cccc([N+](=O)[O-])c1)c1cccc2ccccc12 | inactive |
| CC(C)(C)c1nnc(NC(=O)C2CCN(C(=O)c3ccccc3)CC2)s1 | inactive |
| CC(C)=CCC/C(C)=C/CNC(=O)C[C@H]1C[C@H](C(=O)N(C(C)C)C(C)C)[C@@]2(C)c3[nH]c4cc(-c5ccco5)ccc4c3CCN2C1=O | inconclusive: 18.4 µM [cytotoxic, single point] |
| COC(=O)c1ccccc1NC(=O)CN(C)S(=O)(=O)c1ccc(OC)cc1 | inconclusive: 13 µM [cytotoxic, partial curve] |
| Cc1nnc(OC(C)C)c2nn(-c3ccccc3F)c(C)c12 | inconclusive: 18.4 µM [cytotoxic, single point] |
| CCCNC(=O)C1(C)CCN(C(=O)COc2ccc(C(C)(C)C)cc2)C1 (centres undefined) | inactive |
| COc1cc(C(=O)OCC(=O)Nc2sccc2C(N)=O)cc(OC)c1OC | inconclusive: 25.9 µM [cytotoxic, single point] |
| Cn1nnc(NCc2cc(Br)ccc2OCc2cccs2)n1 | inconclusive: 5.8 µM [cytotoxic, full curve] |
| Cc1ccc(N(C)S(=O)(=O)c2cccc(C(=O)Nc3ccc(C)cn3)c2)cc1 | inconclusive: 9.2 µM [cytotoxic, partial curve] |
| CC(C)(C)c1nc(SCC(=O)NNC(=O)c2ccccc2)c2ccccc2n1 | inconclusive: 18.4 µM [cytotoxic, single point] |
| COc1cc(NC(=O)c2ccccc2)c(OC)cc1NC(=O)CN1CCN(c2ccccn2)CC1 | inactive |
| COC(=O)C1=NNC2(C)C(=O)N(c3ccc(C)cc3)C(=O)C12 (centres undefined) | inactive |
| Cc1ccc2ccccc2c1C(O)c1ncc(-c2ccccc2F)[nH]1 (centres undefined) | inactive |
| Cc1c(C(=O)N2CCCCC2)c(S(=O)(=O)Nc2ccc(F)cc2F)c(C)n1C | inactive |
| N#CC(=Cc1ccnc2ccccc12)c1ccccc1 | inconclusive: 25.9 µM [cytotoxic, single point] |
| CCN(C(=O)c1cc(OC)c(OC)c(OC)c1)C1CCCCC1 | inconclusive: 9.2 µM [cytotoxic, partial curve, poor fit] |

Copied from above for reference:

| Compound | Potency |
| --- | --- |
| Cc1c(C(=O)N2CCCCC2)c(S(=O)(=O)Nc2ccc(F)cc2F)c(C)n1C | inactive |
| N#CC(=Cc1ccnc2ccccc12)c1ccccc1 | inconclusive: 25.9 µM [cytotoxic, single point] |
